Common to all, as to experiment: tandem affinity co-purification (HisTrap, Strep-Tactin) + SEC; subunits co-overexpressed in S. cerevisiae; cleared lysate on HisTrap (Brn1-His12), eluted with imidazole; then Strep-Tactin resin (Smc4-StrepII3), eluted with desthiobiotin; then Superose 6; holo-complex and ∆Ycg1 tetramer
Assay [1] deals with T1, Smc4 (SMC subunit of budding yeast condensin) (S. cerevisiae), Q12267.
T1 chain: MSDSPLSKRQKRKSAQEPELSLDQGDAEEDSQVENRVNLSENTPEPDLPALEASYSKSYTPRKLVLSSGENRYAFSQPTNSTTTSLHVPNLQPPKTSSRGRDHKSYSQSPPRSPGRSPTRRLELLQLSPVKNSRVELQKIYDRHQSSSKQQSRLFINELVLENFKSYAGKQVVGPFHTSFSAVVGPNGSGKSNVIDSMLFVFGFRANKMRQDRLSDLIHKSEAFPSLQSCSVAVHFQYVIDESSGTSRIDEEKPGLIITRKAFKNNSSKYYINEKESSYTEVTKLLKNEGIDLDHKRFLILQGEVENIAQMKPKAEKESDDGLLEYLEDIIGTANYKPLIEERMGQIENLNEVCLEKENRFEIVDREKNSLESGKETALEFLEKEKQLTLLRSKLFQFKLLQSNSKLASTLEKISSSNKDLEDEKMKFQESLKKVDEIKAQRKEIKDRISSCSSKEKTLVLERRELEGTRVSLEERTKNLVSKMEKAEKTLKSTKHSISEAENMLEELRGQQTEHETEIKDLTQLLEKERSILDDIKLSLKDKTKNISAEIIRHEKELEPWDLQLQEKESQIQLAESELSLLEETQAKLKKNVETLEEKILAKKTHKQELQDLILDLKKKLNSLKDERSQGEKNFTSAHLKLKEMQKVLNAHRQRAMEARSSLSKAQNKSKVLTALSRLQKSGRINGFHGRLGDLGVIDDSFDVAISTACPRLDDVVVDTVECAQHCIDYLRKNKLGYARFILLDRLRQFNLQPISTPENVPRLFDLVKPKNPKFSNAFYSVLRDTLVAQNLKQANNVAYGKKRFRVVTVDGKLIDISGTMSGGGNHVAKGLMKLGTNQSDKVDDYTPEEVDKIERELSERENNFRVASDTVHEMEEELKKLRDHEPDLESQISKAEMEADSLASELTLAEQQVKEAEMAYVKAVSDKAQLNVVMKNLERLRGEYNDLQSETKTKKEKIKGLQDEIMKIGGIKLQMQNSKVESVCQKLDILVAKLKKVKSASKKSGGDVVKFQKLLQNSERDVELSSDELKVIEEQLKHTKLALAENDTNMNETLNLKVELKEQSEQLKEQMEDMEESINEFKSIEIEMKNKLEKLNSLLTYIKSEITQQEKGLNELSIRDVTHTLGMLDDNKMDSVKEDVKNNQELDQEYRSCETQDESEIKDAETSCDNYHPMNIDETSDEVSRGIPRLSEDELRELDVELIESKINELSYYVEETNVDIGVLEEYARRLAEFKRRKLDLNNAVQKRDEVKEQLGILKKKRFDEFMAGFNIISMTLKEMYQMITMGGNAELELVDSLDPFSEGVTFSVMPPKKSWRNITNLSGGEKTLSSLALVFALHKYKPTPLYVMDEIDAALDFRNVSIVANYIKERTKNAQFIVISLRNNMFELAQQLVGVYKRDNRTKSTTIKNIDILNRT
The settings on record: remark: other sources report otherwise.

Assay [2] concerns the target T2, Brn1 (kleisin subunit of budding yeast condensin) (S. cerevisiae) (UniProt P38170).
T2 sequence: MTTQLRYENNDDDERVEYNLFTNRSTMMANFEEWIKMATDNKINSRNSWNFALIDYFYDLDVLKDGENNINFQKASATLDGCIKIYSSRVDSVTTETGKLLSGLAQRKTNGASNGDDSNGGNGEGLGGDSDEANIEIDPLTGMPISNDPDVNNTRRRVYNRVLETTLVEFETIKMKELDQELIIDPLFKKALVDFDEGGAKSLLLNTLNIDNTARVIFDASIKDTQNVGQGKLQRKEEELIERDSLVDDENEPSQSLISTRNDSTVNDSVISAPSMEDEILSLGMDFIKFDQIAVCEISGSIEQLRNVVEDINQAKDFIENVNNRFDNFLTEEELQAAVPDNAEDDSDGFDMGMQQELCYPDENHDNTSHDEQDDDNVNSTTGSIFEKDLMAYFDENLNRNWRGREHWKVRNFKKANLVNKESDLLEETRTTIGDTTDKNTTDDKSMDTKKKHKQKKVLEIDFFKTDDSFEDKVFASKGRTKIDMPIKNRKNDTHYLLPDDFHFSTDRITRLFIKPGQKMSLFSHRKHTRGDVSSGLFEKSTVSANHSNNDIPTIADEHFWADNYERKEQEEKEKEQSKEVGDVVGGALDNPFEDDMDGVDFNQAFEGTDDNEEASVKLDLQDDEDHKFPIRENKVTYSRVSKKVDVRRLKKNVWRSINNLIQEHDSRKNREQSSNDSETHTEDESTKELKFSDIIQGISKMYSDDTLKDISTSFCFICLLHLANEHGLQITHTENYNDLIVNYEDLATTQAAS

Assay [3] addresses T3, Smc4 (SMC subunit of budding yeast condensin) (S. cerevisiae) (UniProt Q12267).
T3 sequence: T1 chain

Results are given in words; binding and its absence hold for the method and conditions named. Some results given as binding are weak or reduced against the parent protein; the word gives no strength.

B1: Ycg1 (HAWK subunit of budding yeast condensin), Q06680 1-1035 (protein)
chain: MQDPDGIDINTKIFNSVAEVFQKAQGSYAGHRKHIAVLKKIQSKAVEQGYEDAFNFWFDKLVTKILPLKKNEIIGDRIVKLVAAFIASLERELILAKKQNYKLTNDEEGIFSRFVDQFIRHVLRGVESPDKNVRFRVLQLLAVIMDNIGEIDESLFNLLILSLNKRIYDREPTVRIQAVFCLTKFQDEEQTEHLTELSDNEENFEATRTLVASIQNDPSAEVRRAAMLNLINDNNTRPYILERARDVNIVNRRLVYSRILKSMGRKCFDDIEPHIFDQLIEWGLEDRELSVRNACKRLIAHDWLNALDGDLIELLEKLDVSRSSVCVKAIEALFQSRPDILSKIKFPESIWKDFTVEIAFLFRAIYLYCLDNNITEMLEENFPEASKLSEHLNHYILLRYHHNDISNDSQSHFDYNTLEFIIEQLSIAAERYDYSDEVGRRSMLTVVRNMLALTTLSEPLIKIGIRVMKSLSINEKDFVTMAIEIINDIRDDDIEKQEQEEKIKSKKINRRNETSVDEEDENGTHNDEVNEDEEDDNISSFHSAVENLVQGNGNVSESDIINNLPPEKEASSATIVLCLTRSSYMLELVNTPLTENILIASLMDTLITPAVRNTAPNIRELGVKNLGLCCLLDVKLAIDNMYILGMCVSKGNASLKYIALQVIVDIFSVHGNTVVDGEGKVDSISLHKIFYKVLKNNGLPECQVIAAEGLCKLFLADVFTDDDLFETLVLSYFSPINSSNEALVQAFAFCIPVYCFSHPAHQQRMSRTAADILLRLCVLWDDLQSSVIPEVDREAMLKPNIIFQQLLFWTDPRNLVNQTGSTKKDTVQLTFLIDVLKIYAQIEKKEIKKMIITNINAIFLSSEQDYSTLKELLEYSDDIAENDNLDNVSKNALDKLRNNLNSLIEEINERSETQTKDENNTANDQYSSILGNSFNKSSNDTIEHAADITDGNNTELTKTTVNISAVDNTTEQSNSRKRTRSEAEQIDTSKNLENMSIQDTSTVAKNVSFVLPDEKSDAMSIDEEDKDSESFSEVC
B1: in assay [1], the binding result is reported as “binds”.

B2: Ycs4 (HAWK subunit of budding yeast condensin) (protein, UniProt Q06156 1-1176)
chain: MSGFSLSEYLTKFQTTDRESYPRLQDPSRELNVIIDQLAVSPEQIDASPDSLEALIDLCHDFPHLTPKLQTQLSYLISSSLSNLSKDIKANLSSNVNFTEIGGLIPQWKRHLEEYGYLIQVLLTFLQDELHKVSSQSTNLNRSAKNSKNDSANVELFKRDCNQMENLLESITKLLEINLSKIFQTTPEKDLFIGLFTRPLFVLLEIEPVTKVSSLKMFIQRILAMCVKNHGQSSSIQSSLMTNLTYFLHLSVFNAELLKLLNDEYNYPQLTEDILKEISTRVFNAKDTTGPKAISNFLIKLSELSPGIMLRQMNLVITLLNNSSITLRCSVVEACGNIVAELAQDPQTMEHYKQQIAVLIELLEERFQDSNPYVRTKAIQGCSKICDLSSKFNKSKAKFTSLAVRSLQDRSSLVRRNSVKLLSKLLLKHPFKAIHGSQLRLSEWEEYLKGSESQLNSTLKKVESQETLNDTIERSLIEEEVEQDEGQCRTELEGSFNKSAELSRIENEVENINATNTSVLMKLKLMIVYYKDAISFIKEIHKSIELISNLLFSKNRNEVLESMDFLVLADAFDIELSEFGIKKMLHLVWMKGTNDEGTSISVHLIECYKQLFLTAPDSCNMQEKAAHIAKNLINLSIGASIADLASLEQLLGMMYEQKLIDQHVINILWAIYNSASKASMQKEQNVNNRDSEKGFSKEQIHGSIIILGMLSLADNEIALKGLESLLNIGLGAVGLKDLTLCRYSCLALERMVPKRSTIITKAINQELEDVAVKKLYAIIINYTKDNEYYPMCEQALSALFTISSKPDILATDLIREKTMMTFGKPEEEDSILSLEQSSRVVSLSQLLFIVGQVAIKTLVYLEKCEAEFKKRKIEAETRNGKVKNQGADVTNTTQDNGGDKELEMIGGTNEDDFTDAIQFVKENELLFGEKSILGKFCPIVEEIVSNSSRFSDPMLQRTATLCLEKLMCLSSKYCEKSLPLLITVMEKSPDPTIRSNAVLGLGDMAVCFNNLVDENTDYLYRRLHDENLMVQRTCLMTVTFLILAGQVKVKGQLGEMAKCLDNPDQGISDMCRLFFTELASKDNAIYNGFIDIFSNLSSDDLLGKESFKKIIKFLLTFIDKERHQKQLNEKLVGRLRKCETQKQWDDIAFVLNNLPYKNEDVTALLEQGFKVVSAKE
Take B2: the binding result in assay [2] and in assay [3] was “binds” each time.

B3: Smc2 (SMC subunit of budding yeast condensin) (protein, UniProt P38989 1-1170)
chain: MKVEELIIDGFKSYATRTVITDWDPQFNAITGLNGSGKSNILDAICFVLGIASMSTVRASSLQDLIYKRGQAGVTKASVTIVFDNTDKSNSPIGFTNSPQISVTRQVVLGGTSKYLINGHRAPQQSVLQLFQSVQLNINNPNFLIMQGKITKVLNMKPSEILSLIEEAAGTKMFEDRREKAERTMSKKETKLQENRTLLTEEIEPKLEKLRNEKRMFLEFQSTQTDLEKTERIVVSYEYYNIKHKHTSIRETLENGETRMKMLNEFVKKTSEEIDSLNEDVEEIKLQKEKELHKEGTISKLENKENGLLNEISRLKTSLSIKVENLNDTTEKSKALESEIASSSAKLIEKKSAYANTEKDYKMVQEQLSKQRDLYKRKEELVSTLTTGISSTGAADGGYNAQLAKAKTELNEVSLAIKKSSMKMELLKKELLTIEPKLKEATKDNELNVKHVKQCQETCDKLRARLVEYGFDPSRIKDLKQREDKLKSHYYQTCKNSEYLKRRVTNLEFNYTKPYPNFEASFVHGVVGQLFQIDNDNIRYATALQTCAGGRLFNVVVQDSQTATQLLERGRLRKRVTIIPLDKIYTRPISSQVLDLAKKIAPGKVELAINLIRFDESITKAMEFIFGNSLICEDPETAKKITFHPKIRARSITLQGDVYDPEGTLSGGSRNTSESLLVDIQKYNQIQKQIETIQADLNHVTEELQTQYATSQKTKTIQSDLNLSLHKLDLAKRNLDANPSSQIIARNEEILRDIGECENEIKTKQMSLKKCQEEVSTIEKDMKEYDSDKGSKLNELKKELKLLAKELEEQESESERKYDLFQNLELETEQLSSELDSNKTLLHNHLKSIESLKLENSDLEGKIRGVEDDLVTVQTELNEEKKRLMDIDDELNELETLIKKKQDEKKSSELELQKLVHDLNKYKSNTNNMEKIIEDLRQKHEFLEDFDLVRNIVKQNEGIDLDTYRERSKQLNEKFQELRKKVNPNIMNMIENVEKKEAALKTMIKTIEKDKMKIQETISKLNEYKRETLVKTWEKVTLDFGNIFADLLPNSFAKLVPCEGKDVTQGLEVKVKLGNIWKESLIELSGGQRSLIALSLIMALLQFRPAPMYILDEVDAALDLSHTQNIGHLIKTRFKGSQFIVVSLKEGMFANANRVFRTRFQDGTSVVSIM
Regarding B3, the binding result in assay [2] and in assay [3] was “binds” in each case.

The values above are taken from paper PMC9890231.
